According to publication PMC7738899:
These are yes or no findings as the source states them, for the method shown. Binding seen in cells or lysates may run through a third protein. Some results given as binding are weak or reduced against the parent protein; the word gives no strength.

Sequences of proteins named here, by UniProt entry; tags and fusion partners are left off.
UniProt Q9NZI8: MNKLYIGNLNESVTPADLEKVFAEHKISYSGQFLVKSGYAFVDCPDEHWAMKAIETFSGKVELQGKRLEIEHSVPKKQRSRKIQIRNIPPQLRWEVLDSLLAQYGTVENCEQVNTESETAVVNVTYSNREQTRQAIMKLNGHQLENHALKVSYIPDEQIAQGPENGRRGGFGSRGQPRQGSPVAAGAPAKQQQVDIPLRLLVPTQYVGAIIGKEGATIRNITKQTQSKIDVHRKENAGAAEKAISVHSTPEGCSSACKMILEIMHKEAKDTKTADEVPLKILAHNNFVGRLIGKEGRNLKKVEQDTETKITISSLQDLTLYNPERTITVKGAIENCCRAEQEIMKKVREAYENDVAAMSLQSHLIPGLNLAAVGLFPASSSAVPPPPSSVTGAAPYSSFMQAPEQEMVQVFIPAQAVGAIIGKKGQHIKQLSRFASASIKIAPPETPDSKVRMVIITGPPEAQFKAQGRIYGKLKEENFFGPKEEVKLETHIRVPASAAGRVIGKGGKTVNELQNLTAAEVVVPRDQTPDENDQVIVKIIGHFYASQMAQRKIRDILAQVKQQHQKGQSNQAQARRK
UniProt P11940: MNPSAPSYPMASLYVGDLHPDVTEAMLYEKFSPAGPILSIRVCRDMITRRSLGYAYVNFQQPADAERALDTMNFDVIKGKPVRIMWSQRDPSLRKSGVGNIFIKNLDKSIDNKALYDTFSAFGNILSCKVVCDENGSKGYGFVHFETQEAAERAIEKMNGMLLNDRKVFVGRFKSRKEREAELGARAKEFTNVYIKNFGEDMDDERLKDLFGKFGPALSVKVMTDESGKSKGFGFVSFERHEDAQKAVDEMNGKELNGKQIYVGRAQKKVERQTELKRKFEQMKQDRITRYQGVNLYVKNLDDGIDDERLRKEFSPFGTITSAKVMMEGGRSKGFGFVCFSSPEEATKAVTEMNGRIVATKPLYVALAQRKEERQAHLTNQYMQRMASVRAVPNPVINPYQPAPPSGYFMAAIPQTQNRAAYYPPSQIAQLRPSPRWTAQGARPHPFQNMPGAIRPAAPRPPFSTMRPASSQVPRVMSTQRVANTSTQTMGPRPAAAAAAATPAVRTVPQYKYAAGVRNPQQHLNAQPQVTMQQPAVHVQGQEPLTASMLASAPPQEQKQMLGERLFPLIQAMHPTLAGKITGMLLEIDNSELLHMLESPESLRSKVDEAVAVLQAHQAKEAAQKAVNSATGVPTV

Target: Insulin-like growth factor 2 mRNA-binding protein 1 (IGF2BP1), FLAG-tagged (UniProt Q9NZI8)
Assay: co-IP; AN3CA cells expressing FLAG-IGF2BP1; lysate incubated with flag antibody-magnetic bead complex at 4 °C overnight; beads washed five times with buffer containing 10 μg/mL RNAse A; eluate analysed by western blotting (and silver staining)

binding: binds
Substance: polyadenylate-binding protein 1 (PABPC1) (from UniProt P11940 1-636)
